Laboratory results reported in doi:10.1101/2024.11.19.623840, “Targeting GOF p53 and c-MYC through LZK Inhibition or Degradation Suppresses Head and Neck Tumor Growth” (bioRxiv, 2024).
Where a chain is given by its changes, count along the chain named. These are yes or no findings as the source states them, for the method shown. In cells and extracts the contact can be indirect. Some results given as binding are weak or reduced against the parent protein; the word gives no strength. Tags and fused reporters may be left off the sequences shown.

Columns and labels:
[1] = molecular target: T1, Flag-tagged kinase-dead K195M mutant LZK (human) (UniProt O43283); assay: co-IP; FLAG-tagged LZK constructs transiently transfected in 293T cells; lysis in 1x Triton X-100 cell lysis buffer, lysate at 1 mg/mL; anti-FLAG (rat) antibody 2 h at 4 °C, Dynabeads Protein G 1 h, four washes with lysis buffer; p53 detected by Western blot
T1 sequence: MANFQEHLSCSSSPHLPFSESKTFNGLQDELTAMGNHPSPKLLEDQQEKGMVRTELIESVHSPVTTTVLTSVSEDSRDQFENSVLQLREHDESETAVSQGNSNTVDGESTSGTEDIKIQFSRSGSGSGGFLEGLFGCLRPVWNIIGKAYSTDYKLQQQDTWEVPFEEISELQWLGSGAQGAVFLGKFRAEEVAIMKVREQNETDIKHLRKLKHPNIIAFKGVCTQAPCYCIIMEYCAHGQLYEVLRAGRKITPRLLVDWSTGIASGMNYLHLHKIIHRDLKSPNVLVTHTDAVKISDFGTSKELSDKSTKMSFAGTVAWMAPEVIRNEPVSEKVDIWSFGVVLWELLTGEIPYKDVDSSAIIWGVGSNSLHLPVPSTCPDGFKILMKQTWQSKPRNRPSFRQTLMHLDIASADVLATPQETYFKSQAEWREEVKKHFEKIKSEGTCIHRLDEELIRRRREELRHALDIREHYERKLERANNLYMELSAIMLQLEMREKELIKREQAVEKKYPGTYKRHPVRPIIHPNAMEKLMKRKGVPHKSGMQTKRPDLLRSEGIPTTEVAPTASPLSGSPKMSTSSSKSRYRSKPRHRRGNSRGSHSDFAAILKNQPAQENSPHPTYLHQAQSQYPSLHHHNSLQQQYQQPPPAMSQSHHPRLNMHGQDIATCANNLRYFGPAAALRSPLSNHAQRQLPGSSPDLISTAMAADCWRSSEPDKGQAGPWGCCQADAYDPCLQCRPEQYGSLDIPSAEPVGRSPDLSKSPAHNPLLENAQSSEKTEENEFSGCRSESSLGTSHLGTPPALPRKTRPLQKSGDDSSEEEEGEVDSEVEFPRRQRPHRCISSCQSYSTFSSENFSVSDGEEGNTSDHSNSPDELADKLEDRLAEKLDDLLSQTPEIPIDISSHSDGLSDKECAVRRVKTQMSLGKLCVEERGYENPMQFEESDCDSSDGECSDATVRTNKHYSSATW

[2] = molecular target: T2, wild-type FLAG-tagged LZK (leucine zipper-bearing kinase, encoded by MAP3K13) (human) (UniProt O43283); assay: as above
T2 sequence: T1 sequence with M195K

p53 (from UniProt P04637 1-393)
binding [1]: binds
binding [2]: binds
